Data as given in PubChem BioAssay AID686938 (Drosophila RNAi Screening Center, 2013)
In all, the deposit lists about 23,000 reagents; this is an unselected part of those that have a named target and a result. Of all reagents, 75 (0.33%) are marked active. 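Raw plate signals without normalisation; calls rest on plate z-scores that were not deposited; ratio present for only 364 wells.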 The record does not give: the dose of the treatment.

Aim: 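Looking for CRAC channel components and the factors controlling them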 (primary screen)
Cell system: Drosophila S2R+ cells
Knock-down reagent: long dsRNA against Drosophila genes, about 0.25 µg dsRNA per well, roughly 10,000 cells
Time to read-out: 5 days of knock-down before the calcium assay
Conditions: thapsigargin (SERCA pump blocker) to empty calcium stores; entry signal taken 4 min after adding it
Measured: 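Per-well fluo-4 fluorescence in two replicates, unnormalised, measured in resting cells and 4 min after store depletion by the SERCA blocker thapsigargin; ratio of the two present in few wells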
Direction: calcium entry signal: higher = stronger calcium signal after store depletion; resting calcium signal: higher = higher resting calcium signal
Active means: 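Hit if the duplicate-averaged plate z-score for entry over resting signal is under −3; wells with weak total dye signal (Fmax z < −2) or more than 5 off-targets removed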
Calls: active = strongly reduced calcium entry; inactive = no strong reduction

target gene	DRSC id	calcium entry signal, replicate 1 (fluorescence units)	calcium entry signal, replicate 2 (fluorescence units)	resting calcium signal, replicate 1 (fluorescence units)	resting calcium signal, replicate 2 (fluorescence units)	outcome
Hpr1	DRSC12296	3.61e7	4.36e7	1.33e7	1.89e7	inactive
eIF3k (eukaryotic translation initiation factor 3 subunit k)	DRSC04056	2.59e7		1.43e7		inactive
Men-b (Malic enzyme b)	DRSC16736	4.54e7	5.77e7	2.32e7	2.56e7	inactive
CG13449	DRSC09996	4.67e7	6.19e7	2.27e7	2.60e7	inactive
CG31636	DRSC02276	3.20e7	2.67e7	1.55e7	1.36e7	inactive
Ttc1 (Tetratricopeptide repeat domain 1)	DRSC15016	3.44e7	7.70e7	1.67e7	6.23e7	inactive
Ttc1 (Tetratricopeptide repeat domain 1)	DRSC22469	3.45e7	3.17e7	1.87e7	1.45e7	inactive
CtsB (Cathepsin B)	DRSC19361	2.28e7	3.10e7	1.17e7	1.46e7	inactive
CG7755	DRSC07040	5.38e7	5.38e7	2.11e7	2.52e7	inactive
trn (tartan)	DRSC11407	3.50e7	4.53e7	1.76e7	1.94e7	inactive
CG5377	DRSC15783	2.98e7	3.35e7	6.59e7	1.56e7	inactive
org-1 (optomotor-blind-related-gene-1)	DRSC18810	3.29e7	4.56e7	1.80e7	2.49e7	inactive
org-1 (optomotor-blind-related-gene-1)	DRSC22974	4.85e7	3.49e7	2.27e7	1.37e7	inactive
CG11593	DRSC08206	4.12e7	4.46e7	2.12e7	2.17e7	inactive
Bub1 (Bub1 kinase)	DRSC02357	5.42e7		2.63e7		inactive
Bub1 (Bub1 kinase)	DRSC23158	3.35e7	3.44e7	1.60e7	1.53e7	inactive
CG43104 (retired record)	DRSC05624	2.63e7	5.54e7	1.28e7	2.49e7	inactive
Ufsp1 (UFM1 specific peptidase 1)	DRSC04958	1.84e7	2.37e7	9.83e6	1.10e7	inactive
CG5509	DRSC15822	4.10e7	3.91e7	2.03e7	1.79e7	inactive
kud (kuduk)	DRSC11086	3.32e7	4.66e7	1.67e7	1.89e7	inactive
CPT2 (Carnitine palmitoyltransferase 2)	DRSC08553	3.71e7	3.93e7	1.74e7	1.82e7	inactive
CG13564	DRSC04201	3.06e7	4.05e7	1.63e7	1.83e7	inactive
mRpS18C (mitochondrial ribosomal protein S18C)	DRSC16538	3.29e7	4.73e7	1.68e7	1.93e7	inactive
CG3436	DRSC00605	1.07e7		7.82e6		inactive
smid (smallminded)	DRSC11398	2.47e7	4.82e7	1.25e7	2.08e7	inactive
CG1910	DRSC15400	2.43e7	3.21e7	1.15e7	1.50e7	inactive
msd1 (mitotic spindle density 1)	DRSC08383	3.07e7	3.63e7	1.64e7	1.62e7	inactive
CG7492	DRSC10855	5.72e7	4.47e7	3.97e7	1.69e7	inactive
l(2)k14505 (lethal (2) k14505)	DRSC03106	3.60e7		1.70e7		inactive
Atg18a (Autophagy-related 18a)	DRSC10943	5.12e7	4.79e7	3.03e7	1.80e7	inactive
CYLD (Cylindromatosis)	DRSC02870	2.92e7	3.77e7	1.55e7	1.59e7	inactive
TrxT (Thioredoxin T)	DRSC22182	4.14e7	7.01e7	1.98e7	3.36e7	inactive
TrxT (Thioredoxin T)	DRSC23117	3.42e7	3.77e7	1.67e7	1.67e7	inactive
kmr (kramer)	DRSC12986	3.26e7	3.55e7	1.80e7	1.74e7	inactive
kmr (kramer)	DRSC14827	3.43e7	6.03e7	1.86e7	7.45e7	inactive
kmr (kramer)	DRSC14828	4.77e7	6.25e7	2.20e7	6.58e7	inactive
kmr (kramer)	DRSC16472	2.09e7	2.39e7	1.02e7	1.24e7	inactive
CG15202	DRSC19649	3.49e7	4.89e7	1.79e7	2.42e7	inactive
uif (uninflatable)	DRSC00963	3.49e7	3.44e7	2.09e7	1.64e7	inactive
uif (uninflatable)	DRSC03427	3.55e7	4.27e7	1.68e7	2.04e7	inactive

Entries listed so far whose gene name begins with O or o (2):
target gene	DRSC id	calcium entry signal, replicate 1 (fluorescence units)	calcium entry signal, replicate 2 (fluorescence units)	resting calcium signal, replicate 1 (fluorescence units)	resting calcium signal, replicate 2 (fluorescence units)	outcome
org-1 (optomotor-blind-related-gene-1)	DRSC18810	3.29e7	4.56e7	1.80e7	2.49e7	inactive
org-1 (optomotor-blind-related-gene-1)	DRSC22974	4.85e7	3.49e7	2.27e7	1.37e7	inactive
